Results published in PubChem BioAssay AID1347426 (Functional Genomics Laboratory (NCATS/FGL), 2020).
The whole screen tested about 31,000 sequences, of which about 1,400 (4.5%) were called active.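 Rule for the calls: active = median seed-adjusted z-score above 1 or below -1; inactive = the rest.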 The list shows a part of the results.

Test: Novel Modifiers of Survival Motor Neuron (SMN) Protein: Gene Identification via Genome-wide siRNA Screen;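 note: luminescence tracks full-length SMN protein made from the SMN2 reporter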
Settings: HEK293T SMN2-luciferase reporter, siRNA knockdown, 72 h; actives lie on both sides
In short: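 Steps: spot 1 pmol siRNA, add Lipofectamine RNAiMax in serum-free DMEM, seed HEK293T SMN2–luciferase reporter cells; incubate 72 h at 37 °C; add ONE-Glo; normalize luminescence to control siRNA, log10, MAD. Candidates: |MAD| > 1.0.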
In the case of CAACAUCCCUGAAUCUCCATT against CYP4A11, the median seed-adjusted z-score is reported as inactive: -0.762.
For GGAAAAGGCUCUUCCGGAATT against TRIM50, the median seed-adjusted z-score was inactive: 0.
For GCGUGGACCCAAAUCAAUATT against KARS, the median seed-adjusted z-score was inactive: -0.152.
With GCAAGGAGUAUAACAUGUATT against SKAP1 the median seed-adjusted z-score was inactive: -0.00637.
With CAGUAUUUAUCGAGAUAAATT against SOX2 the median seed-adjusted z-score was inactive: 0.0559.
For AGGAUCUAGUGGUCCAUAUTT against COL4A6, the median seed-adjusted z-score was inactive: 0.0681.
With GUAUUAGAUUCCAAUGACATT against PCDHB9 the median seed-adjusted z-score was inactive: 0.516.
In the case of GGAUAUUACUUGCAAAGGATT against GTF2I, the median seed-adjusted z-score is reported as inactive: 0.379.
For GACUGGAUUUUGUGAUUCATT against GLULD1, the median seed-adjusted z-score was inactive: -0.332.
For CAAAGACGAAUUUCAGCUATT against AES, the median seed-adjusted z-score was inactive: -0.478.
With CGAUGAUUGAGGUGCUAAATT against TTC13 the median seed-adjusted z-score was inactive: 0.0363.
In the case of CAGUAUUGCUACAAACCGATT against RBMS1, the median seed-adjusted z-score is reported as inactive: 0.798.
In the case of AGAUGUGAAGCUCAAAUUATT against ETV7, the median seed-adjusted z-score is reported as inactive: -0.00772.
In the case of GGUUUUUAUAGAGCACAAATT against BCL11B, the median seed-adjusted z-score is reported as inactive: 0.163.
With GGAAUUAGACGACAGAUCATT against EPPK1 the median seed-adjusted z-score was inactive: 0.786.
In the case of CCUAUGCUGUGCUCACGAATT against HLX, the median seed-adjusted z-score is reported as inactive: 0.379.
With AAGCCUCAUGGGAUCCUUATT against NPTXR the median seed-adjusted z-score was inactive: 0.0818.
For GGCUUGACAUUCUACGUUUTT against PPP1R3A, the median seed-adjusted z-score was inactive: -0.241.
For CCAUCACCGUGCCCUACAATT against PURA, the median seed-adjusted z-score was inactive: -0.0185.
With AACUGGAUGUGAAAACAAATT against VDAC2 the median seed-adjusted z-score was inactive: 0.648.
In the case of GGAUUCUGUAUUAUGGAUATT against TOP1, the median seed-adjusted z-score is reported as inactive: 0.0303.
For UCUCCCUCAUCUACACCAATT against GSTP1, the median seed-adjusted z-score was inactive: -0.61.
In the case of CGUGAUCAAUAGGAAAAUUTT against CCL8, the median seed-adjusted z-score is reported as inactive: 0.436.
With UCAUCAGCGUGGUCCAGAATT against ALOX5AP the median seed-adjusted z-score was inactive: -0.0169.
For GAAUUGUGCGGGAUUAUGATT against PCYT1A, the median seed-adjusted z-score was inactive: 0.0429.
In the case of GCAUGCUUCCAUUGCGAGATT against LASP1, the median seed-adjusted z-score is reported as inactive: -0.286.
For UGACCUACGAGGAAAUUCATT against PFKFB4, the median seed-adjusted z-score was inactive: 0.149.
For CGAGGUUACCAACAUGCUUTT against PLA2G3, the median seed-adjusted z-score was inactive: 0.543.
With GAAUUACCUUCAUAUCCUUTT against ZNF518A the median seed-adjusted z-score was inactive: -0.252.
For CGGAUGUUCUUUACACUAUTT against HNRNPL, the median seed-adjusted z-score was active: 1.04.
For CGAACAGGCCUAUUCUCUATT against NDUFS2, the median seed-adjusted z-score was inactive: -0.388.
In the case of GCCCUAUUGCGAGAUGGUATT against PPM1K, the median seed-adjusted z-score is reported as inactive: 0.154.
In the case of GCCUGUUAAGGAUCUAACATT against PTPRB, the median seed-adjusted z-score is reported as inactive: -0.0981.
For CAGAAUCUAUUGUUAAUGATT against TMED10, the median seed-adjusted z-score was inactive: 0.523.
With CAUCUAAACCGGAAGGUUUTT against KCNH5 the median seed-adjusted z-score was inactive: -0.827.
With GAGCAAAGCCUGCAACAAATT against TAL2 the median seed-adjusted z-score was inactive: -0.395.
With GAGACAAGCUUCAACCACATT against SERPINA5 the median seed-adjusted z-score was active: -1.01.
In the case of UGGUAUCUCCUCUAAGUAATT against IGFBP7, the median seed-adjusted z-score is reported as inactive: 0.116.
With CUCUUAUGGUAACCAAUGATT against CCT2 the median seed-adjusted z-score was inactive: -0.0508.
With CCAAUGGAAACGGAACUAATT against MGAM the median seed-adjusted z-score was inactive: 0.312.
With CUGUCUACAUGAGCAGUAATT against CTSE the median seed-adjusted z-score was inactive: -0.1.
In the case of GGUCUAGAGAUAGAUCAUUTT against NGLY1, the median seed-adjusted z-score is reported as inactive: -0.0453.
In the case of GGAGCUGAGGAUAACUAUATT against MARS, the median seed-adjusted z-score is reported as inactive: -0.266.
In the case of CCGUGGUGGUUGACGAUAATT against ADAMTS17, the median seed-adjusted z-score is reported as inactive: 0.257.
For CUAUAGGACUGGAUUUCUUTT against RAB28, the median seed-adjusted z-score was inactive: 0.114.
With GGAUCACAUUCAUCCCUAUTT against GPRC6A the median seed-adjusted z-score was inactive: 0.
In the case of GACUAAUGGAUGAAGCUAATT against PBK, the median seed-adjusted z-score is reported as inactive: -0.311.
In the case of GAUUGGACCUAACAAUGGATT against NEIL3, the median seed-adjusted z-score is reported as inactive: 0.0736.
In the case of CCAAUUCCAGGUUAACUUUTT against S100A7A, the median seed-adjusted z-score is reported as inactive: 0.212.
With GCUUCAUCGUAUGGAAGAATT against NTSR2 the median seed-adjusted z-score was inactive: -0.125.
In the case of GCUGCGUUCUGGUAUUUGATT against RAB7A, the median seed-adjusted z-score is reported as inactive: 0.169.
For GACUUUUACAAGGAUGGGATT against PTGIS, the median seed-adjusted z-score was inactive: 0.
With GGCUACCUUUCAUCAAAGATT against EIF3B the median seed-adjusted z-score was inactive: -0.71.
With GCAAAGACCAUAAGAUUUATT against MYST1 the median seed-adjusted z-score was inactive: 0.
In the case of GCACGUACUUGAUUCAGCATT against ZNF34, the median seed-adjusted z-score is reported as inactive: 0.0391.
For GCUUCAAUCAAAAUUCGAATT against VCL, the median seed-adjusted z-score was inactive: 0.
With CACCUGUUCGUGUCCUUCATT against SCTR the median seed-adjusted z-score was inactive: -0.352.
With GCAUUGGACUGAUCCAGCATT against ZNF643 the median seed-adjusted z-score was inactive: -0.0134.
In the case of ACAUCCGCAUGAUCCAUAATT against WDTC1, the median seed-adjusted z-score is reported as inactive: -0.412.
With GGUCUAGCCUUGAUCAGAATT against SHROOM3 the median seed-adjusted z-score was inactive: 0.779.
In the case of GGUGCAACAUCUAGAUUCATT against ABCG5, the median seed-adjusted z-score is reported as inactive: 0.739.
In the case of ACAGCAUUGUCAUUAGACATT against UBR5, the median seed-adjusted z-score is reported as inactive: 0.114.
In the case of GCUGGAUAGUAGCAGACGATT against LY75, the median seed-adjusted z-score is reported as inactive: -0.0919.
In the case of GAAUUAUGGAUGACGAUAATT against CAPSL, the median seed-adjusted z-score is reported as inactive: -0.168.
For GGCUGAAGAGGUCGAUGUATT against MAP1B, the median seed-adjusted z-score was inactive: 0.139.
For GGACCAGUGCAGCAAAUCATT against ALDH1A1, the median seed-adjusted z-score was inactive: -0.355.
For CGUCUAUGAUGUGACCAAUTT against RABL4, the median seed-adjusted z-score was inactive: -0.154.
For ACCAGUAUUUCAACCAUCATT against CITED2, the median seed-adjusted z-score was inactive: -0.0248.
For GGCACAACAUUUCCCUAAATT against TBK1, the median seed-adjusted z-score was inactive: 0.0578.
In the case of GCUACUAUGCUGUCCUGUATT against GPR161, the median seed-adjusted z-score is reported as inactive: -0.138.
In the case of CUACCGGGCUGACCUCAAATT against GPR153, the median seed-adjusted z-score is reported as active: -1.08.
For GACCGAGAAGUACCGCUGATT against HBZ, the median seed-adjusted z-score was inactive: -0.0054.
In the case of CCAGCGAUGAAGUAGCAAATT against ZAN, the median seed-adjusted z-score is reported as inactive: 0.736.
With GAAACAAGCCCUUUAAGUUTT against FKBP1A the median seed-adjusted z-score was inactive: 0.113.
In the case of CAAGCAUAUUAAUGAGGUUTT against DYRK1A, the median seed-adjusted z-score is reported as active: -1.3.
With CUUGUGCCCUGGACAUUAATT against GLG1 the median seed-adjusted z-score was inactive: 0.308.
In the case of GCAUACUGGAAGGUAGUUATT against MMP21, the median seed-adjusted z-score is reported as inactive: -0.185.
In the case of AGAUGUACGGCCGAAAUGATT against TEAD3, the median seed-adjusted z-score is reported as inactive: 0.
For GAACUAGGAUUUCAUAGCATT against LGR5, the median seed-adjusted z-score was inactive: 0.
In the case of CCACCAAACGGCACACUUUTT against LINGO4, the median seed-adjusted z-score is reported as inactive: 0.388.
With CCCUCUUGCUGAUAGUGCATT against SEMA4A the median seed-adjusted z-score was inactive: 0.0377.
With AGGUGUUUUUAAGCUAGAATT against UBE2T the median seed-adjusted z-score was inactive: -0.0157.
In the case of GCAUAUGGACUAACAGACATT against FDX1, the median seed-adjusted z-score is reported as inactive: -0.0549.
With GCAUUAGUCUGGGCAUUGATT against SLC16A6 the median seed-adjusted z-score was inactive: 0.195.
For CAUUGUCAUUUACAACUGATT against TMPRSS11E, the median seed-adjusted z-score was inactive: 0.0512.
With CCACCAGGCAAUAACCACATT against DIRAS1 the median seed-adjusted z-score was inactive: -0.751.
In the case of GGAUUCCACGAACAAUAGATT against MCM8, the median seed-adjusted z-score is reported as inactive: 0.279.
In the case of GCCUUGGACUUUCUGCAUATT against MKNK2, the median seed-adjusted z-score is reported as inactive: 0.281.
For UACAUGAACUGGUUCAUCATT against SPNS3, the median seed-adjusted z-score was inactive: -0.00533.
For CGCAUGUCAGUCUCUCGAATT against SYT14L, the median seed-adjusted z-score was inactive: 0.2.
With GUCUCAAGCUCAACACGGATT against EPHA8 the median seed-adjusted z-score was inactive: 0.217.
With CGACUAUUCCAGCACAAGATT against QARS the median seed-adjusted z-score was inactive: -0.411.
With UGAAGUCUGUCGCUAUAAATT against TAP2 the median seed-adjusted z-score was inactive: -0.768.
In the case of AGGUCAGGAUUGACAAUGATT against RIT2, the median seed-adjusted z-score is reported as inactive: 0.253.
With CUAUCAGUACAUUACGGUATT against KIF3A the median seed-adjusted z-score was inactive: 0.119.
With GAAGGACCCAGAUCUCUUUTT against ADCK1 the median seed-adjusted z-score was inactive: -0.177.
For GGUCUGGAUCGAUUCACUUTT against CACNG6, the median seed-adjusted z-score was inactive: -0.0499.
For GCAACUCCUUAUCUAGAUATT against PPIL6, the median seed-adjusted z-score was inactive: -0.215.
In the case of GAACUAGCACGCAUCAAGATT against PPM1G, the median seed-adjusted z-score is reported as inactive: 0.073.
In the case of GAACGAGCUGGAUCCAUUATT against ARSF, the median seed-adjusted z-score is reported as inactive: 0.111.
In the case of GGAGCAGUAUCAAACUCUATT against PCGF6, the median seed-adjusted z-score is reported as inactive: 0.536.
For CCCUUCUGGUUGGACGAUATT against TRIB1, the median seed-adjusted z-score was inactive: 0.
In the case of GGUACCUACUCAGAACCUATT against AKR1D1, the median seed-adjusted z-score is reported as inactive: 0.211.
For GCACAUGACAAUGGACCAATT against VKORC1, the median seed-adjusted z-score was inactive: -0.754.
With CAAUGUCCCAAGAUAAAGATT against PRPSAP1 the median seed-adjusted z-score was inactive: 0.224.
In the case of UUUCCAAACAAGUACCUAATT against CKS2, the median seed-adjusted z-score is reported as inactive: 0.0907.
For GACCUGUCACAGAACCAGATT against VASN, the median seed-adjusted z-score was inactive: 0.213.
